The list is a part of this screen's results and no random one: it gathers tests that were run many times, whatever their T/C, doses with no T/C, and many T/C values between a quarter and a half above the control. Further doses and runs are listed elsewhere. T/C gives the treated animals as a percentage of the vehicle group. Some doses have a count of surviving animals in place of a T/C: the source holds a T/C of zero for them, seemingly a mark for toxic or unscored doses. Some doses without a T/C left all or most animals alive at the check, yet need not have been tolerated: survival well below the control is almost never listed, so the zero probably covers shortened survival too. Survivors were counted at the toxicity check, usually on the fifth day, unless a day is given; later deaths do not show. Schedules are NCI's codes, taken here to give the interval after Q, in days (D) or hours (H), and the number of doses after X. Some schedules carry Z or #; the key to these is not given. Some entries hold several experiments; their values stand side by side, smallest first. Where survival is the endpoint, this PubChem deposit counts one and a half times the control or more as active, and values a quarter to a half above the control carry no call in these data; other NCI protocols may use other cut-offs.
Tested on: L1210 leukemia ip in BDF1 mice, survival T/C
Assay: NCI In Vivo Anticancer Drug Screen. Data for tumor model L1210 Leukemia (intraperitoneal) in B6D2F1 (BDF1) mice
Conditions: higher T/C = longer survival
[1] = T/C endpoint: mean survival time, dose: 100.0 mg/kg/injection, schedule: Q01DX009 (ip), vehicle: water
[2] = T/C endpoint: mean survival time, dose: 200.0 mg/kg/injection, schedule: Q01DX009 (ip), vehicle: water
[3] = T/C endpoint: mean survival time, dose: 400.0 mg/kg/injection, schedule: Q01DX009 (ip), vehicle: water
[4] = T/C endpoint: mean survival time, dose: 200.0 mg/kg/injection, schedule: Q01DX001 (ip), vehicle: saline
[5] = T/C endpoint: mean survival time, dose: 400.0 mg/kg/injection, schedule: Q01DX001 (ip), vehicle: saline
[6] = T/C endpoint: mean survival time, dose: 100.0 mg/kg/injection, schedule: Q01DX001 (ip), vehicle: saline

## Cn1cc(/C=C/C(N)=O)c2nccnc21
T/C endpoint: mean survival time, dose: 50.0 mg/kg/injection, schedule: Q01DX009 (ip), vehicle: water
  survivor count: 0 of 6
[1]
  survivor count: 0 of 6
[2]
  survivor count: 0 of 6
[3]
  survivor count: 0 of 6

## C/C=C/C1OCCO1
T/C endpoint: mean survival time, dose: 200.0 mg/kg/injection, schedule: Q01DX009 (ip), vehicle: acetone
  survivor count: 1 of 6
T/C endpoint: mean survival time, dose: 400.0 mg/kg/injection, schedule: Q01DX009 (ip), vehicle: acetone
  survivor count: 0 of 6

## CN=C(N)c1ccc(NC(=O)Nc2ccc(NC(=O)Nc3ccc(C(N)=NC)cc3)cc2)cc1
T/C endpoint: mean survival time, dose: 15.0 mg/kg/injection, schedule: Q01DX Z (ip), vehicle: saline
  T/C: 126 % of control
T/C endpoint: mean survival time, dose: 30.0 mg/kg/injection, schedule: Q01DX Z (ip), vehicle: saline
  T/C: 135 % of control

## O=CNC1CCCCC1c1ccc(C2CCCCC2NC=O)cc1 (stereo not given)
[4]
  survivor count: 0 of 6
[5]
  survivor count: 0 of 6

## C(=N\Nc1nnc(N/N=C/C2CCCCC2)c2ccccc12)/C1CCCCC1
[6]
  survivor count: 2 of 4
[4]
  survivor count: 0 of 4
[5]
  survivor count: 0 of 4

## Nc1nc(N)c2c(Cl)c(CNc3ccc(Cl)c(Cl)c3)ccc2n1
T/C endpoint: mean survival time, dose: 6.25 mg/kg/injection, schedule: Q01DX009 (ip), vehicle: saline with Tween-80
  T/C: 127 % of control
T/C endpoint: mean survival time, dose: 12.5 mg/kg/injection, schedule: Q01DX009 (ip), vehicle: water
  T/C: 141 % of control
T/C endpoint: mean survival time, dose: 25.0 mg/kg/injection, schedule: Q01DX009 (ip), vehicle: saline with Tween-80
  T/C: 140 % of control
T/C endpoint: mean survival time, dose: 25.0 mg/kg/injection, schedule: Q01DX009 (ip), vehicle: water
  T/C: 129 % of control
[1]
  survivor count: 6 of 6
T/C endpoint: mean survival time, dose: 100.0 mg/kg/injection, schedule: Q04DX003 (ip), vehicle: water
  T/C: 147 % of control
[2]
  survivor count: 6 of 6
[3]
  survivor count: 4 of 6
T/C endpoint: mean survival time, dose: 400.0 mg/kg/injection, schedule: Q04DX003 (ip), vehicle: water
  T/C: 147 % of control

## COC1=NC2(C)C3C=CC(C4C(=O)N(c5ccccc5)C(=O)C43)C12C (stereo not given)
T/C endpoint: mean survival time, dose: 75.0 mg/kg/injection, schedule: Q04DX002 (ip), vehicle: gum acacia
  survivor count: 0 of 3
T/C endpoint: mean survival time, dose: 150.0 mg/kg/injection, schedule: Q04DX002 (ip), vehicle: gum acacia
  survivor count: 0 of 3
T/C endpoint: mean survival time, dose: 300.0 mg/kg/injection, schedule: Q04DX002 (ip), vehicle: gum acacia
  survivor count: 0 of 3

## COc1ccc(OC)c(NC(=S)N/N=C(\C)c2ccc(O)c(C)c2)c1
T/C endpoint: mean survival time, dose: 50.0 mg/kg/injection, schedule: Q04DX002 (ip), vehicle: Klucel (hydroxypropylcellulose) (HPC)
  T/C: 126 % of control

## C[n+]1cccc(NC(=O)c2ccc(NC(=O)c3ccc(C(=O)Nc4ccc(NC(=N)N)cc4)cc3)cc2)c1
T/C endpoint: mean survival time, dose: 0.9 mg/kg/injection, schedule: Q01DX009 (ip), vehicle: saline
  T/C: 131 % of control
T/C endpoint: mean survival time, dose: 1.3 mg/kg/injection, schedule: Q01DX009 (ip), vehicle: saline
  T/C: 131 % of control
T/C endpoint: mean survival time, dose: 7.5 mg/kg/injection, schedule: Q01DX009 (ip), vehicle: saline
  T/C: 149 % of control
T/C endpoint: mean survival time, dose: 10.0 mg/kg/injection, schedule: Q01DX001 (ip), vehicle: saline
  T/C: 127 and 137 % of control
T/C endpoint: mean survival time, dose: 10.0 mg/kg/injection, schedule: Q01DX009 (ip), vehicle: saline
  T/C: 125 % of control
T/C endpoint: mean survival time, dose: 20.0 mg/kg/injection, schedule: Q01DX001 (ip), vehicle: saline
  T/C: 144 % of control
T/C endpoint: mean survival time, dose: 80.0 mg/kg/injection, schedule: Q01DX001 (ip), vehicle: saline
  survivor count: 0 of 6 and 3 of 6

## O=C(Nc1cccc(Cl)c1)Oc1c(Cl)cc(S(=O)(=O)F)cc1Cl
T/C endpoint: mean survival time, dose: 200.0 mg/kg/injection, schedule: Q04DX002 (ip), vehicle: saline with Tween-80
  survivor count: 0 of 3
T/C endpoint: mean survival time, dose: 400.0 mg/kg/injection, schedule: Q04DX002 (ip), vehicle: saline with Tween-80
  survivor count: 0 of 3

## O=C(NCCCCCCCCNC(=O)N1CC1)N1CC1
T/C endpoint: mean survival time, dose: 0.66 mg/kg/injection, schedule: Q01DX009 (ip), vehicle: carboxymethylcellulose (CMC)
  T/C: 133 % of control
T/C endpoint: mean survival time, dose: 12.5 mg/kg/injection, schedule: Q01DX001 (ip), vehicle: carboxymethylcellulose (CMC)
  survivor count: 1 of 4
T/C endpoint: mean survival time, dose: 25.0 mg/kg/injection, schedule: Q01DX001 (ip), vehicle: carboxymethylcellulose (CMC)
  survivor count: 1 of 4
T/C endpoint: mean survival time, dose: 100.0 mg/kg/injection, schedule: Q01DX001 (ip), vehicle: carboxymethylcellulose (CMC)
  survivor count: 0 of 4
T/C endpoint: mean survival time, dose: 200.0 mg/kg/injection, schedule: Q01DX001 (ip), vehicle: carboxymethylcellulose (CMC)
  survivor count: 0 of 4
T/C endpoint: mean survival time, dose: 400.0 mg/kg/injection, schedule: Q01DX001 (ip), vehicle: carboxymethylcellulose (CMC)
  survivor count: 0 of 4

## S=P(N1CCOCC1)(N1CC1)N1CC1
T/C endpoint: mean survival time, dose: 10.0 mg/kg/injection, schedule: Q#A X Z (ip), vehicle: saline
  T/C: 136 % of control
T/C endpoint: mean survival time, dose: 17.5 mg/kg/injection, schedule: Q07DX003 (ip), vehicle: saline
  T/C: 140 % of control
T/C endpoint: mean survival time, dose: 18.0 mg/kg/injection, schedule: Q01DX003 (ip), vehicle: saline
  T/C: 149 % of control
T/C endpoint: mean survival time, dose: 20.0 mg/kg/injection, schedule: Q01DX006 (iv), vehicle: saline
  T/C: 136 % of control
T/C endpoint: mean survival time, dose: 20.0 mg/kg/injection, schedule: Q01DX Z (sc), vehicle: saline
  T/C: 142 % of control
T/C endpoint: mean survival time, dose: 20.0 mg/kg/injection, schedule: Q#A X Z (ip), vehicle: saline
  T/C: 146 % of control
T/C endpoint: mean survival time, dose: 26.0 mg/kg/injection, schedule: Q01DX003 (ip), vehicle: saline
  T/C: 139 % of control
T/C endpoint: mean survival time, dose: 35.0 mg/kg/injection, schedule: Q01DX001 (ip), vehicle: saline
  T/C: 135 % of control
T/C endpoint: mean survival time, dose: 35.0 mg/kg/injection, schedule: Q07DX003 (ip), vehicle: saline
  T/C: 130 % of control
T/C endpoint: mean survival time, dose: 40.0 mg/kg/injection, schedule: Q01DX006 (iv), vehicle: saline
  T/C: 145 % of control
T/C endpoint: mean survival time, dose: 40.0 mg/kg/injection, schedule: Q01DX010 (ip), vehicle: saline
  survivor count: 6 of 6
T/C endpoint: mean survival time, dose: 40.0 mg/kg/injection, schedule: Q01DX Z (oral), vehicle: saline
  T/C: 126 % of control
T/C endpoint: mean survival time, dose: 40.0 mg/kg/injection, schedule: Q01DX Z (sc), vehicle: saline
  T/C: 130 % of control
T/C endpoint: mean survival time, dose: 60.0 mg/kg/injection, schedule: Q03DX006 (ip), vehicle: saline
  T/C: 126 % of control
T/C endpoint: mean survival time, dose: 80.0 mg/kg/injection, schedule: Q01DX Z (sc), vehicle: saline
  survivor count: 5 of 6
T/C endpoint: mean survival time, dose: 80.0 mg/kg/injection, schedule: Q#A X Z (ip), vehicle: saline
  survivor count: 3 of 6
T/C endpoint: mean survival time, dose: 120.0 mg/kg/injection, schedule: Q03DX006 (ip), vehicle: saline
  survivor count: 1 of 6
T/C endpoint: mean survival time, dose: 140.0 mg/kg/injection, schedule: Q01DX001 (ip), vehicle: saline
  survivor count: 2 of 6
T/C endpoint: mean survival time, dose: 140.0 mg/kg/injection, schedule: Q07DX003 (ip), vehicle: saline
  survivor count: 1 of 6
T/C endpoint: mean survival time, dose: 160.0 mg/kg/injection, schedule: Q01DX006 (iv), vehicle: saline
  survivor count: 4 of 6
T/C endpoint: mean survival time, dose: 160.0 mg/kg/injection, schedule: Q01DX Z (oral), vehicle: saline
  survivor count: 3 of 6
T/C endpoint: mean survival time, dose: 160.0 mg/kg/injection, schedule: Q01DX Z (sc), vehicle: saline
  survivor count: 6 of 6
T/C endpoint: mean survival time, dose: 160.0 mg/kg/injection, schedule: Q#A X Z (ip), vehicle: saline
  survivor count: 0 of 6
T/C endpoint: mean survival time, dose: 280.0 mg/kg/injection, schedule: Q01DX001 (ip), vehicle: saline
  survivor count: 1 of 6
T/C endpoint: mean survival time, dose: 280.0 mg/kg/injection, schedule: Q07DX003 (ip), vehicle: saline
  survivor count: 3 of 6
T/C endpoint: median survival time, dose: 40.0 mg/kg/injection, schedule: Q01DX009 (ip), vehicle: saline
  T/C: 131 % of control

## CCOC(=O)c1ccccn1
[5]
  survivor count: 0 of 4

## Cc1ccc(N2C(N)=NC(N)=NC2(C)C)cc1
T/C endpoint: mean survival time, dose: 50.0 mg/kg/injection, schedule: Q01DX001 (ip), vehicle: saline
  survivor count: 2 of 6
[6]
  survivor count: 1 of 6
[4]
  survivor count: 0 of 6
[5]
  survivor count: 0 of 6

## ClC1=CCCCC1
T/C endpoint: mean survival time, dose: 150.0 mg/kg/injection, schedule: Q01DX009 (ip), vehicle: saline with Tween-80
  survivor count: 1 of 6
T/C endpoint: mean survival time, dose: 225.0 mg/kg/injection, schedule: Q01DX009 (ip), vehicle: saline with Tween-80
  survivor count: 0 of 6
T/C endpoint: mean survival time, dose: 335.0 mg/kg/injection, schedule: Q01DX009 (ip), vehicle: saline with Tween-80
  survivor count: 1 of 6

From PubChem BioAssay AID248 (DTP/NCI, 2004)
